Earlier results as cited in patent US11504410B2, “Neuroprotection and neuroregeneration by pterostilbene and compositions thereof” (THERAPEUTIC SOLUTIONS INTERNATIONAL, INC., priority 2020, dated 2022).
Where two headings read alike, the source gives them in different places. At least one compound was matched to its structure with a doubt left.

Tests used:
microglial activation = conditions: cited from earlier work; for survival of CA1 pyramidal neurons: untreated 10.5%
peri-infarct microglia = conditions: cited from earlier work

| Compound | attenuation of inducible nitric oxide synthase mRNA expression (microglial activation; in vivo) [%] | induction of glial acidic fibrillary protein (astrogliosis marker) (microglial activation; in vivo) | ischemia-induced activation of microglia and appearance of NADPH-diaphorase reactive cells (microglial activation; in vivo) | reduction in mRNA induction of interleukin-1beta-converting enzyme (microglial activation; treatment for 4 days) [%] | rate of recovery of motor function (forelimb placing test) (peri-infarct microglia; administered for 2 days after stroke, assessed up to 28 days) | infarct volume (peri-infarct microglia; administered for 2 days after stroke) | core features of peri-infarct microglial reactivity (peri-infarct microglia; at 3 days) | decrease in subpopulation of cells that expressed CD68 (peri-infarct microglia; at 3 days) [%] | survival of CA1 pyramidal neurons (microglial activation; treatment started 30 min after ischemia) [%] | survival of CA1 pyramidal neurons (microglial activation; treatment started 12 h before ischemia) [%] |
| --- | --- | --- | --- | --- | --- | --- | --- | --- | --- | --- |
| CN(C)c1ccc(O)c2c1C[C@H]1C[C@H]3[C@H](N(C)C)C(O)=C(C(N)=O)C(=O)[C@@]3(O)C(O)=C1C2=O [Minocycline, minocycline] | 30 | did not affect | prevented completely | 70 | improved the rate of recovery of motor function | did not alter infarct volume | only minor effects | 57 |  |  |
| C[C@H]1c2cccc(O)c2C(=O)C2=C(O)[C@]3(O)C(=O)C(C(N)=O)=C(O)[C@@H](N(C)C)[C@@H]3[C@@H](O)[C@@H]21 [doxycycline] |  |  |  |  |  |  |  |  | 47 | 57 |
